Where two headings read alike, the source gives them in different places. No constants are given. Whether binding was seen depends on the method and setting. Binding seen in cells or lysates may run through a third protein. Some entries that bind do so weakly or less than the wild type. Where a sequence is shown, tags or fusion partners need not be part of it. One block for each molecule: values may come before it.
Tests used:
Assay in all cases: co-IP
[1] = target: T1, FLAG-OTUD4 (1-425aa) (UniProt Q01804)
T1 sequence: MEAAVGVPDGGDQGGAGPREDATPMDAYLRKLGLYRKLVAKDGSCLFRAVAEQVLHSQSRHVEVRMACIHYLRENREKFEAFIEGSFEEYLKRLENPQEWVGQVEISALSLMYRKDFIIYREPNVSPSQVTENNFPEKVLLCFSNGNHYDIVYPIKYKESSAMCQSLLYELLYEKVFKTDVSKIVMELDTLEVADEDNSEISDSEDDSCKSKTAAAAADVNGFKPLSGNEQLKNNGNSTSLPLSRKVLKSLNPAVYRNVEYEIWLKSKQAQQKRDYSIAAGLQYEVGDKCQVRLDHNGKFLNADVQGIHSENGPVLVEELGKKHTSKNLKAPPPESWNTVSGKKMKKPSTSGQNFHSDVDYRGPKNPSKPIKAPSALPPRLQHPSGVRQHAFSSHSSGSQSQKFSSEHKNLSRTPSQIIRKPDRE

Protein sequences, listed by entry. Tags and fused reporters are not part of them.
UniProt Q93009: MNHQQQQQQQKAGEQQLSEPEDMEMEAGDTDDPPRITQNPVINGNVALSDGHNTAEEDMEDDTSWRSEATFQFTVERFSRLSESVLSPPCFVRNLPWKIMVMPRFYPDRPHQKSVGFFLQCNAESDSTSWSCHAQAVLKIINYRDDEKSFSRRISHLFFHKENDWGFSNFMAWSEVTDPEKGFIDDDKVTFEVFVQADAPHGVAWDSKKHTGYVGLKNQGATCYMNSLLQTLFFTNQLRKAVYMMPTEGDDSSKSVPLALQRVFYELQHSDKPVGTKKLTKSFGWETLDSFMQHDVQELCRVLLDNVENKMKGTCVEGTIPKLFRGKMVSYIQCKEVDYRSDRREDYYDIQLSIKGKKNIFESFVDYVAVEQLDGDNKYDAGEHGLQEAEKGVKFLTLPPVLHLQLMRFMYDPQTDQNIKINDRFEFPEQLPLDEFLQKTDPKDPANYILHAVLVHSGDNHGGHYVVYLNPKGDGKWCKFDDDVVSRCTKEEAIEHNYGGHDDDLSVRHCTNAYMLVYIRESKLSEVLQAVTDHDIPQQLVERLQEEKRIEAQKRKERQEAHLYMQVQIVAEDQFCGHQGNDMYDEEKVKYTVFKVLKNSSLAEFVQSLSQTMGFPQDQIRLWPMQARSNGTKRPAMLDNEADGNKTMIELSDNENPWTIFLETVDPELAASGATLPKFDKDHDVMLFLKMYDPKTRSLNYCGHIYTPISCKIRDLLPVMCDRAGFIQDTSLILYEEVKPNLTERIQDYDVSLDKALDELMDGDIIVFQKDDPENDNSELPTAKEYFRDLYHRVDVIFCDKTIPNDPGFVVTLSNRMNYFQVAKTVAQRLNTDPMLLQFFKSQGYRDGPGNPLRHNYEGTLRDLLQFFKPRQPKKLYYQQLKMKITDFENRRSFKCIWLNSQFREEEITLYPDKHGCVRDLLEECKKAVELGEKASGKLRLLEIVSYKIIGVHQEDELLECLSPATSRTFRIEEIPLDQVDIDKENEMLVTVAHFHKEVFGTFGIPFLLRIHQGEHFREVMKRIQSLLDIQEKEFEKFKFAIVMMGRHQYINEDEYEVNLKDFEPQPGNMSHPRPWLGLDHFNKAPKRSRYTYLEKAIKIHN

[2] = target: T2, FLAG-OTUD4 (wild type, full length), Q01804; details: remark: other sources report otherwise
T2 chain: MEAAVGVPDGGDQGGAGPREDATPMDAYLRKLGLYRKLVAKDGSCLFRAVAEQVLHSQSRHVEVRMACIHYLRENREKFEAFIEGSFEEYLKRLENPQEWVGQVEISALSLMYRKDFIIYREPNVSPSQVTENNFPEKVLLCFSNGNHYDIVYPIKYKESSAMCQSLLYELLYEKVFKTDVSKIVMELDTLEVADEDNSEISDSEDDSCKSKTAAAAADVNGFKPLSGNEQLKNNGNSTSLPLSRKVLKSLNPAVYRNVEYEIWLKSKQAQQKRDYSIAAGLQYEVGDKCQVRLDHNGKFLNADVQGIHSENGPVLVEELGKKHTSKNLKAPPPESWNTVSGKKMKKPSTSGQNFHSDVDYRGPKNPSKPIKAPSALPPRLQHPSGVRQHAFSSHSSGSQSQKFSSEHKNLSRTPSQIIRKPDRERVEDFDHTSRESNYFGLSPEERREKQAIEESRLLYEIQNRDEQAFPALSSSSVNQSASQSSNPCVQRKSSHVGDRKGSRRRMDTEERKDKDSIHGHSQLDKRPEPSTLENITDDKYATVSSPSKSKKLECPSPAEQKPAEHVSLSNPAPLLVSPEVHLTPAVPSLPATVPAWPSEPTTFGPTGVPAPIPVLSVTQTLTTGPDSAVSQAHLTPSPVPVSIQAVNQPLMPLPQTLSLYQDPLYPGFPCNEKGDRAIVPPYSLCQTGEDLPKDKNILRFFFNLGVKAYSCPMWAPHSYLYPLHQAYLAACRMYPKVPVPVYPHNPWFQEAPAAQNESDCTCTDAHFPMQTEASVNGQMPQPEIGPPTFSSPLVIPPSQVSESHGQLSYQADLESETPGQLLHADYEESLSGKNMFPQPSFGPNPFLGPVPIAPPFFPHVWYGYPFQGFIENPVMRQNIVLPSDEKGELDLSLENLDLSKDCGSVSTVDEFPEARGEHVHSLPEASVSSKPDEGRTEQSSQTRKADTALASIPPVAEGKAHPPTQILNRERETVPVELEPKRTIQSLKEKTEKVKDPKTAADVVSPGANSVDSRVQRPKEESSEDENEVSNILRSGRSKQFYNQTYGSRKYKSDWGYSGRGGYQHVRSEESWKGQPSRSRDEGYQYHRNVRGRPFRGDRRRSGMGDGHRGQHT

[3] = target: T1, FLAG-OTUD4 (1-425aa); remark: listed apart in the source

binding [1]: binds
Molecule: HA-USP7 (from UniProt Q93009 1-1102) (enzyme)

binding [2]: binds
B1: FLAG-OTUD4 (wild type, full length), Q01804 1-1114 (enzyme)
chain: T2 chain

binding [3]: binds
B2: FLAG-OTUD4 (1-425aa) (domain or fragment, UniProt Q01804 1-425)
chain: T1 sequence

Source: PMC10810452
